These are yes or no findings as the source states them, for the method shown. Some binding calls cover weakened binding; strength is not graded here.
Molecular target: BCMA on BCMA-expressing tumor cells (KMS12BM, L363, MM1S and KMS12PE) (human) (UniProt Q02223)
Assay: flow cytometry on KMS12BM, L363, MM1S and KMS12PE cells, 0.5 ug antibody, Alexa Fluor 647 anti-mouse IgG; members named in paragraph 369

Amino acid sequences for entries named in this document (tags omitted). A change or cut given only in a name is not applied to a line headed by its entry.
UniProt Q02223: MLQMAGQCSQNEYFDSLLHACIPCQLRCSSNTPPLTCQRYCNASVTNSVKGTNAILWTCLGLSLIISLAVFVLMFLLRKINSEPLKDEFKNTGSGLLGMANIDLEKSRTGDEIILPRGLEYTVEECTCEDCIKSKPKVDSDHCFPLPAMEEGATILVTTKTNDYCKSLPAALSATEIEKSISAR

binding: binds
B1: Combo_Rd4_0.6 nM_C29 expressed in mouse IgG2a (antibody, V domains shown)
VH: EVQLLESGGGLVQPGGSLRLSCAASGFTFSSYPMSWVRQAPGKGLEWVSAIGGSGGSLPYADSVKGRFTISRDNSKNTLYLQMNSLRAEDTAVYYCARYWPMDIWGQGTLVTVSS
VL: EIVLTQSPGTLSLSPGERATLSCRASQSVSSSYLAWYQQKPGQAPRLLMYDASIRATGIPDRFSGSGSGTDFTLTISRLEPEDFAVYYCQQYQSWPLTFGQGTKVEIK
